# According to US12419871B2, “Biomolecules involved in Alzheimer's disease” (ELECTROPHORETICS LIMITED, priority 2015, dated 2025):
# B1: O00533 (protein, UniProt O00533 1-1208, looked up)
# chain: MEPLLLGRGLIVYLMFLLLKFSKAIEIPSSVQQVPTIIKQSKVQVAFPFDEYFQIECEAKGNPEPTFSWTKDGNPFYFTDHRIIPSNNSGTFRIPNEGHISHFQGKYRCFASNKLGIAMSEEIEFIVPSVPKFPKEKIDPLEVEEGDPIVLPCNPPKGLPPLHIYWMNIELEHIEQDERVYMSQKGDLYFANVEEKDSRNDYCCFAAFPRLRTIVQKMPMKLTVNSSNSIKQRKPKLLLPPTESGSESSITILKGEILLLECFAEGLPTPQVDWNKIGGDLPKGRETKENYGKTLKIENVSYQDKGNYRCTASNFLGTATHDFHVIVEEPPRWTKKPQSAVYSTGSNGILLCEAEGEPQPTIKWRVNGSPVDNHPFAGDVVFPREISFTNLQPNHTAVYQCEASNVHGTILANANIDVVDVRPLIQTKDGENYATVVGYSAFLHCEFFASPEAVVSWQKVEEVKPLEGRRYHIYENGTLQINRTTEEDAGSYSCWVENAIGKTAVTANLDIRNATKLRVSPKNPRIPKLHMLELHCESKCDSHLKHSLKLSWSKDGEAFEINGTEDGRIIIDGANLTISNVTLEDQGIYCCSAHTALDSAADITQVTVLDVPDPPENLHLSERQNRSVRLTWEAGADHNSNISEYIVEFEGNKEEPGRWEELTRVQGKKTTVILPLAPFVRYQFRVIAVNEVGRSQPSQPSDHHETPPAAPDRNPQNIRVQASQPKEMIIKWEPLKSMEQNGPGLEYRVTWKPQGAPVEWEEETVTNHTLRVMTPAVYAPYDVKVQAINQLGSGPDPQSVTLYSGEDYPDTAPVIHGVDVINSTLVKVTWSTVPKDRVHGRLKGYQINWWKTKSLLDGRTHPKEVNILRFSGQRNSGMVPSLDAFSEFHLTVLAYNSKGAGPESEPYIFQTPEGVPEQPTFLKVIKVDKDTATLSWGLPKKLNGNLTGYLLQYQIINDTYEIGELNDINITTPSKPSWHLSNLNATTKYKFYLRACTSQGCGKPITEESSTLGEGSKGIGKISGVNLTQKTHPIEVFEPGAEHIVRLMTKNWGDNDSIFQDVIETRGREYAGLYDDISTQGWFIGLMCAIALLTLLLLTVCFVKRNRGGKYSVKEKEDLHPDPEIQSVKDETFGEYSDSDEKPLKGSLRSLNRDMQPTESADSLVEYGEGDHGLFSEDGSFIGAYAGSKEKGSVESNGSSTATFPLRA
# modifications: full-length
# B2: Q9UBB6 (protein, UniProt Q9UBB6 1-729, looked up)
# chain: MSCCDLAAAGQLGKASIMASDCEPALNQAEGRNPTLERYLGALREAKNDSEQFAALLLVTKAVKAGDIDAKTRRRIFDAVGFTFPNRLLTTKEAPDGCPDHVLRALGVALLACFCSDPELAAHPQVLNKIPILSTFLTARGDPDDAARRSMIDDTYQCLTAVAGTPRGPRHLIAGGTVSALCQAYLGHGYGFDQALALLVGLLAAAETQCWKEAEPDLLAVLRGLSEDFQKAEDASKFELCQLLPLFLPPTTVPPECYRDLQAGLARILGSKLSSWQRNPALKLAARLAHACGSDWIPAGSSGSKFLALLVNLACVEVRLALEETGTEVKEDVVTACYALMELGIQECTRCEQSLLKEPQKVQLVSVMKEAIGAVIHYLLQVGSEKQKEPFVFASVRILGAWLAEETSSLRKEVCQLLPFLVRYAKTLYEEAEEANDLSQQVANLAISPTTPGPTWPGDALRLLLPGWCHLTVEDGPREILIKEGAPSLLCKYFLQQWELTSPGHDTSVLPDSVEIGLQTCCHIFLNLVVTAPGLIKRDACFTSLMNTLMTSLPALVQQQGRLLLAANVATLGLLMARLLSTSPALQGTPASRGFFAAAILFLSQSHVARATPGSDQAVLALSPEYEGIWADLQELWFLGMQAFTGCVPLLPWLAPAALRSRWPQELLQLLGSVSPNSVKPEMVAAYQGVLVELARANRLCREAMRLQAGEETASHYRMAALEQCLSEP
# modifications: full-length
# B3: Q8NFZ4 (protein, UniProt Q8NFZ4 1-835, looked up)
# chain: MWLLALCLVGLAGAQRGGGGPGGGAPGGPGLGLGSLGEERFPVVNTAYGRVRGVRRELNNEILGPVVQFLGVPYATPPLGARRFQPPEAPASWPGVRNATTLPPACPQNLHGALPAIMLPVWFTDNLEAAATYVQNQSEDCLYLNLYVPTEDGPLTKKRDEATLNPPDTDIRDPGKKPVMLFLHGGSYMEGTGNMFDGSVLAAYGNVIVATLNYRLGVLGFLSTGDQAAKGNYGLLDQIQALRWLSENIAHFGGDPERITIFGSGAGASCVNLLILSHHSEGLFQKAIAQSGTAISSWSVNYQPLKYTRLLAAKVGCDREDSAEAVECLRRKPSRELVDQDVQPARYHIAFGPVVDGDVVPDDPEILMQQGEFLNYDMLIGVNQGEGLKFVEDSAESEDGVSASAFDFTVSNFVDNLYGYPEGKDVLRETIKFMYTDWADRDNGEMRRKTLLALFTDHQWVAPAVATAKLHADYQSPVYFYTFYHHCQAEGRPEWADAAHGDELPYVFGVPMVGATDLFPCNFSKNDVMLSAVVMTYWTNFAKTGDPNQPVPQDTKFIHTKPNRFEEVVWSKFNSKEKQYLHIGLKPRVRDNYRANKVAFWLELVPHLHNLHTELFTTTTRLPPYATRWPPRPPAGAPGTRRPPPPATLPPEPEPEPGPRAYDRFPGDSRDYSTELSVTVAVGASLLFLNILAFAALYYKRDRRQELRCRRLSPPGGSGSGVPGGGPLLPAAGRELPPEEELVSLQLKRGGGVGADPAEALRPACPPDYTLALRRAPDDVPLLAPGALTLLPSGLGPPPPPPPPSLHPFGPFPPPPPTATSHNNTLPHPHSTTRV
# modifications: full-length
# B4: O95502 (protein, UniProt O95502 1-500, looked up)
# chain: MKFLAVLLAAGMLAFLGAVICIIASVPLAASPARALPGGADNASVASGAAASPGPQRSLSALHGAGGSAGPPALPGAPAASAHPLPPGPLFSRFLCTPLAAACPSGAQQGDAAGAAPGEREELLLLQSTAEQLRQTALQQEARIRADQDTIRELTGKLGRCESGLPRGLQGAGPRRDTMADGPWDSPALILELEDAVRALRDRIDRLEQELPARVNLSAAPAPVSAVPTGLHSKMDQLEGQLLAQVLALEKERVALSHSSRRQRQEVEKELDVLQGRVAELEHGSSAYSPPDAFKISIPIRNNYMYARVRKALPELYAFTACMWLRSRSSGTGQGTPFSYSVPGQANEIVLLEAGHEPMELLINDKVAQLPLSLKDNGWHHICIAWTTRDGLWSAYQDGELQGSGENLAAWHPIKPHGILILGQEQDTLGGRFDATQAFVGDIAQFNLWDHALTPAQVLGIANCTAPLLGNVLPWEDKLVEAFGGATKAAFDVCKGRAKA
# modifications: full-length
# B5: P16519 (protein, UniProt P16519 1-638, looked up)
# chain: MKGGCVSQWKAAAGFLFCVMVFASAERPVFTNHFLVELHKGGEDKARQVAAEHGFGVRKLPFAEGLYHFYHNGLAKAKRRRSLHHKQQLERDPRVKMALQQEGFDRKKRGYRDINEIDINMNDPLFTKQWYLINTGQADGTPGLDLNVAEAWELGYTGKGVTIGIMDDGIDYLHPDLASNYNAEASYDFSSNDPYPYPRYTDDWFNSHGTRCAGEVSAAANNNICGVGVAYNSKVAGIRMLDQPFMTDIIEASSISHMPQLIDIYSASWGPTDNGKTVDGPRELTLQAMADGVNKGRGGKGSIYVWASGDGGSYDDCNCDGYASSMWTISINSAINDGRTALYDESCSSTLASTFSNGRKRNPEAGVATTDLYGNCTLRHSGTSAAAPEAAGVFALALEANLGLTWRDMQHLTVLTSKRNQLHDEVHQWRRNGVGLEFNHLFGYGVLDAGAMVKMAKDWKTVPERFHCVGGSVQDPEKIPSTGKLVLTLTTDACEGKENFVRYLEHVQAVITVNATRRGDLNINMTSPMGTKSILLSRRPRDDDSKVGFDKWPFMTTHTWGEDARGTWTLELGFVGSAPQKGVLKEWTLMLHGTQSAPYIDQVVRDYQSKLAMSKKEELEEELDEAVERSLKSILNKN
# modifications: full-length
# B6: Q9NPD7 (protein, UniProt Q9NPD7 1-142, looked up)
# chain: MGLKLNGRYISLILAVQIAYLVQAVRAAGKCDAVFKGFSDCLLKLGDSMANYPQGLDDKTNIKTVCTYWEDFHSCTVTALTDCQEGAKDMWDKLRKESKNLNIQGSLFELCGSGNGAAGSLLPAFPVLLVSLSAALATWLSF
# modifications: full-length
# Assay: TMTcalibrator quantification of regulated proteins in AD CSF versus control
# Design: species or system human
# Details: CSF of AD patient versus control; non-modified peptides of each protein summed for three control and three AD cases
row,Molecule,Log2 AD/Control
1,B1,0.80
2,B2,0.80
3,B3,0.96
4,B4,1.09
5,B5,1.52
6,B6,0.94
